Source: patent US9476017B2, “Compositions and methods for cleaning, disinfecting, and sanitizing that are effluent neutral” (Diversey, Inc, priority 2012, dated 2016)
Values joined by “and” are separate entries in the source; they are usually repeats but may differ in a detail not shown here. Equal entries are not always repeated.

Test: Cleaning tests at 70° C. on stainless steel plates soiled with bioferment (Example 3)
Conditions: 2%, 45 min contact time

With `O=C([O-])[O-].[Na+].[Na+]` [Sodium Carbonate] the “Soil Removal Average” value (average of two plates) was 92.29 g and the “Soil Removal” value (single plate, listed as Na2CO3) was 94.0 g and 90.6 g.
